Measured values from the supplement of paper PMC10849652.
This is one part of the list. Residues, ends and D or L forms follow the SMILES beside them. *: point of attachment. Cbz = O=C(OCc1ccccc1)*

By UniProt entry, the sequences of proteins in these tests, tags left out. Where a name states a change or a piece, a line headed by the entry shows the natural chain unless it says otherwise.
UniProt Q92947: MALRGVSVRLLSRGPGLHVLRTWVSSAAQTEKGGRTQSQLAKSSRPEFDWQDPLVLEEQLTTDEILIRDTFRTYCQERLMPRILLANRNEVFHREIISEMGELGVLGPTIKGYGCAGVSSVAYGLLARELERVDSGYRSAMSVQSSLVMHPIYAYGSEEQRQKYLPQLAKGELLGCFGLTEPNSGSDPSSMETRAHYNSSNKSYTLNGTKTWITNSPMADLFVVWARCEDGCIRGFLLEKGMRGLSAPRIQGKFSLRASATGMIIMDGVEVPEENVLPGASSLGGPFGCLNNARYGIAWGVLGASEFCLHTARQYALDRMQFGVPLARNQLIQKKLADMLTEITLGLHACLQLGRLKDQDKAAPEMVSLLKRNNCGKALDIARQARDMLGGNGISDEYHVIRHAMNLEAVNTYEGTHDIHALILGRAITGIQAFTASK
UniProt Q9UJY4: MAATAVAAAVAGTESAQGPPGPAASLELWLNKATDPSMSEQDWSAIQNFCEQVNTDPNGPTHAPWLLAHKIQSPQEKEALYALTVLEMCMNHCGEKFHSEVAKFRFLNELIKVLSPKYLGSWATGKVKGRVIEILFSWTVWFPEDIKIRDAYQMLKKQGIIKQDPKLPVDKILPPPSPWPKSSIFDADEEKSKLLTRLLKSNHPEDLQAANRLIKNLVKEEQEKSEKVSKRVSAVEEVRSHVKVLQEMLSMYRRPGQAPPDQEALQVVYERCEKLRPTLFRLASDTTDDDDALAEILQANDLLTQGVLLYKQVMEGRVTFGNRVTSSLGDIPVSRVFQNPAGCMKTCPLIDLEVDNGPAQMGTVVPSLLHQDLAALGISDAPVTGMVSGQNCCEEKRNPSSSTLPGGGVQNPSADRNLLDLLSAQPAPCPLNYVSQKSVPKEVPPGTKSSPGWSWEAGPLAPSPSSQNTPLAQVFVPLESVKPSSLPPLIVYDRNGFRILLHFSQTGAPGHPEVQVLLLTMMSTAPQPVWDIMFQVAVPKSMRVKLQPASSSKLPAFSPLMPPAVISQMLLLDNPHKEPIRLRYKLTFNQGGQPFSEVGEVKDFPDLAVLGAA
UniProt P85037: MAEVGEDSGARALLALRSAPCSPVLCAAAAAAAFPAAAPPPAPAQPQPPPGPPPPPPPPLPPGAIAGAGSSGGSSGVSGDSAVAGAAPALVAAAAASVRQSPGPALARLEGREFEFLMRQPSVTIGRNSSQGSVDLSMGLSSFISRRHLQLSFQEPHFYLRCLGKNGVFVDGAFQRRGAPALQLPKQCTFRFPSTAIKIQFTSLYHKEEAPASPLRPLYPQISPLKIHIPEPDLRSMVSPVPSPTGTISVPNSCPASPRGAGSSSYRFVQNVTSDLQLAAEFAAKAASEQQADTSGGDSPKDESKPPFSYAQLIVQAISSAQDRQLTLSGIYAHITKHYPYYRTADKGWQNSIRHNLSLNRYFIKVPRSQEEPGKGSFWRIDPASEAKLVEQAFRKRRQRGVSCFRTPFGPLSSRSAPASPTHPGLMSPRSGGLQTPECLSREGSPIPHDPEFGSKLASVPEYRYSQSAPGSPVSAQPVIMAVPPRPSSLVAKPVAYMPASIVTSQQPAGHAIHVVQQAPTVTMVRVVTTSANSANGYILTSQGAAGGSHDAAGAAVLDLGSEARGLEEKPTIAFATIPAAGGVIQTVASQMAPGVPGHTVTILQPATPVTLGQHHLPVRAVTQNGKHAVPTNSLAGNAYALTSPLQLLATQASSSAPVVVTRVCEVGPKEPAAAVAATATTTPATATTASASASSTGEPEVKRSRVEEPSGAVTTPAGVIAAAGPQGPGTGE
UniProt P31150: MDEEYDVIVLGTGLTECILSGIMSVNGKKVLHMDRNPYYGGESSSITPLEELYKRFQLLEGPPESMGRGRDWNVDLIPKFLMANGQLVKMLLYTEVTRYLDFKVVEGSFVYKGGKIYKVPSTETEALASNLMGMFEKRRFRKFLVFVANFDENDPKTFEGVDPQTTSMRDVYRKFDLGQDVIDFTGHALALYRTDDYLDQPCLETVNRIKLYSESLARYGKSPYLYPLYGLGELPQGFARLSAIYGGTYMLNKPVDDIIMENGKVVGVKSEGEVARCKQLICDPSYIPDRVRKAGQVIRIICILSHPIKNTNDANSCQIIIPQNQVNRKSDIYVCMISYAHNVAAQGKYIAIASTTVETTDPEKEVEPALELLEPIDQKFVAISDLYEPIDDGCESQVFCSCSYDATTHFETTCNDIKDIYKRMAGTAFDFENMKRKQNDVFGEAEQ
UniProt Q14C86: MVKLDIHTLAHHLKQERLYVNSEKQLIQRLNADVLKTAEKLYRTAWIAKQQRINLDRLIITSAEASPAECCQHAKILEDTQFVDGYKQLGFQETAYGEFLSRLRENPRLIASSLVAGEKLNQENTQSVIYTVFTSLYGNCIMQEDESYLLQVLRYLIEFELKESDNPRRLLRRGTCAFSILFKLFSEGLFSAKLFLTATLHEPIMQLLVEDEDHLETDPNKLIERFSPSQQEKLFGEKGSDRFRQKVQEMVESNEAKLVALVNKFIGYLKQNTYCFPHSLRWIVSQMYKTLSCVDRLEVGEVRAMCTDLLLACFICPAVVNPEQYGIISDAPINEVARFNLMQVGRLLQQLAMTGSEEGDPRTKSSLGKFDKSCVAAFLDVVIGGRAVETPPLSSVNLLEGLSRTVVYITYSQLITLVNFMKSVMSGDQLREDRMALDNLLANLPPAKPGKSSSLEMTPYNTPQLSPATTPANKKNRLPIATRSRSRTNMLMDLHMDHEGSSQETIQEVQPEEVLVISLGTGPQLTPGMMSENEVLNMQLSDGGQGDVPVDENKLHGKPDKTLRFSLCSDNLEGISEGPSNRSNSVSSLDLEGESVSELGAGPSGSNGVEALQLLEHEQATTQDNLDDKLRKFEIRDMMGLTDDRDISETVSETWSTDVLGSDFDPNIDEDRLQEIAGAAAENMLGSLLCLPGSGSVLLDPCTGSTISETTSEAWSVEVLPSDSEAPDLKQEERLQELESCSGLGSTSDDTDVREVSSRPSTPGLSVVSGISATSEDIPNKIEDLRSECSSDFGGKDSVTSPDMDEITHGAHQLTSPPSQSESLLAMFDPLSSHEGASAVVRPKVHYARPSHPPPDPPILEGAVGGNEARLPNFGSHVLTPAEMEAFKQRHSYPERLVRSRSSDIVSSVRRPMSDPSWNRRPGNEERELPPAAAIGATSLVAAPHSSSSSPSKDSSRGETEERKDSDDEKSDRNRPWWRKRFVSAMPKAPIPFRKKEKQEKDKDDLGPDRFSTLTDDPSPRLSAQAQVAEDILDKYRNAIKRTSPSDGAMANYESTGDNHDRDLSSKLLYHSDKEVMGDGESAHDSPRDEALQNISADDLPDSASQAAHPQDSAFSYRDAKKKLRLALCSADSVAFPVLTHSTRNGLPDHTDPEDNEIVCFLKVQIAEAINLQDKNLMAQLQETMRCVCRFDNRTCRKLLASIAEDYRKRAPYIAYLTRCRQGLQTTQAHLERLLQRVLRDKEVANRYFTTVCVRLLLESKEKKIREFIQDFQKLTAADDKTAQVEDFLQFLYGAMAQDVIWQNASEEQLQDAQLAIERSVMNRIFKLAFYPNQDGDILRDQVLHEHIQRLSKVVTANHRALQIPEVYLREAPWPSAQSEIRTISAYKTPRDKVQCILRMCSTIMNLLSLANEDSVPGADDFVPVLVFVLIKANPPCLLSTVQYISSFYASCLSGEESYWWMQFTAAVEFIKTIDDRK
UniProt Q10472: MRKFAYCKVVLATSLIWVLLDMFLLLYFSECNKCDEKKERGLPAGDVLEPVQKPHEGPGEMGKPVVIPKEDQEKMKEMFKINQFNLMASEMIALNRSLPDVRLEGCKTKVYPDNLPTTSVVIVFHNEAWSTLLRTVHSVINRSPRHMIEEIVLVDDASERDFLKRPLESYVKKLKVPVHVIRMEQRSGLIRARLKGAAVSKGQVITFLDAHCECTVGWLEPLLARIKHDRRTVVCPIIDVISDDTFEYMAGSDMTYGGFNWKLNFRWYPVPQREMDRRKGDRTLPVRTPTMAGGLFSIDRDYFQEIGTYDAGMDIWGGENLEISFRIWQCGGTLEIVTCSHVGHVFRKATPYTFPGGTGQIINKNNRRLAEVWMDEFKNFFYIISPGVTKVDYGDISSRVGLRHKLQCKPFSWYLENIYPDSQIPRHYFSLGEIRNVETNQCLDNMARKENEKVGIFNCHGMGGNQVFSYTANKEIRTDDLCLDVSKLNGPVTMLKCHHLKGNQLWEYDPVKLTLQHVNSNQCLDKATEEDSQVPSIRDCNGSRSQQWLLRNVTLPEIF
UniProt P04066: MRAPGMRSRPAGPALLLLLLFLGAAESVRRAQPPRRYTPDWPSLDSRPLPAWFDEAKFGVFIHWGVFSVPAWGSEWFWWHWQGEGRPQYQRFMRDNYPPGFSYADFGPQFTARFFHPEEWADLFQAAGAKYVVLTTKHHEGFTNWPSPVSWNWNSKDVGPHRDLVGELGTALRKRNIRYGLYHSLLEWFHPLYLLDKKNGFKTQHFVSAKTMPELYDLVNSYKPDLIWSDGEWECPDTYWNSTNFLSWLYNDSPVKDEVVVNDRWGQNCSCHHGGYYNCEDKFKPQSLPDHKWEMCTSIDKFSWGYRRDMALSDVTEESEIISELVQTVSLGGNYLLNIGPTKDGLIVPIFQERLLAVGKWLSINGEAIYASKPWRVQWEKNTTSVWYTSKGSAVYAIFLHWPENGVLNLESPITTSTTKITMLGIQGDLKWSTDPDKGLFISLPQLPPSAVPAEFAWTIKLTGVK
UniProt Q9UJ14: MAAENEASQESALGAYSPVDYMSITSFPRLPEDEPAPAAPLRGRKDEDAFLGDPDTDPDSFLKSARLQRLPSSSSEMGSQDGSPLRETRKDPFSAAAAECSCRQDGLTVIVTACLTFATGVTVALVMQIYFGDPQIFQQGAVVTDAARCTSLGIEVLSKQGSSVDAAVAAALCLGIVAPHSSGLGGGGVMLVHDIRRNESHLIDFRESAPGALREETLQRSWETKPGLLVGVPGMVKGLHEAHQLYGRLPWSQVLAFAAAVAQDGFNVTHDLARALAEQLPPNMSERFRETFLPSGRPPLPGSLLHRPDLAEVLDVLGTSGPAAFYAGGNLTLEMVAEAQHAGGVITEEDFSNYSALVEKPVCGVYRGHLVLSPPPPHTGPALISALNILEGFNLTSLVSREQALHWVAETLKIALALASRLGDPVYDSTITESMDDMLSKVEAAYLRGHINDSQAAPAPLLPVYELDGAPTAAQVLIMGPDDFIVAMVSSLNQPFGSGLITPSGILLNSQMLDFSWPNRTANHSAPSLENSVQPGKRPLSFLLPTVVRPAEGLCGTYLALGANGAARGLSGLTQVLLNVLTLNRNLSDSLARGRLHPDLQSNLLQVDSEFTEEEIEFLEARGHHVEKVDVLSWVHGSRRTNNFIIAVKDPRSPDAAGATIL
UniProt Q8NCW6: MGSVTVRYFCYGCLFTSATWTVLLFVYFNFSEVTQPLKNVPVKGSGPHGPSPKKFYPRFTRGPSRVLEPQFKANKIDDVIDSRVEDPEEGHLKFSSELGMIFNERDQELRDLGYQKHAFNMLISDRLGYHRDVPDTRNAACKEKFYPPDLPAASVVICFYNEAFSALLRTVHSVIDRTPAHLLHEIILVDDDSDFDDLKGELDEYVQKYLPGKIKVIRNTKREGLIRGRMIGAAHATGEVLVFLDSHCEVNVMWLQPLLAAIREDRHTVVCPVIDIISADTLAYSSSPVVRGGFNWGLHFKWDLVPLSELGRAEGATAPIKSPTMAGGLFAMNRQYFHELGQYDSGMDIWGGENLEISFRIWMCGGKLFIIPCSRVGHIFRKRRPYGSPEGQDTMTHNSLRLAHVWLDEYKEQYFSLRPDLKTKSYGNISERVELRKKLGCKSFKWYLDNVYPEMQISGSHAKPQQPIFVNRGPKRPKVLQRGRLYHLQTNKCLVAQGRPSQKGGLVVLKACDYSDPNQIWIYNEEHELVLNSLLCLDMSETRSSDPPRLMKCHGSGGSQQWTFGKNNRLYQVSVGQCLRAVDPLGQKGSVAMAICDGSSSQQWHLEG
UniProt Q9BTY2: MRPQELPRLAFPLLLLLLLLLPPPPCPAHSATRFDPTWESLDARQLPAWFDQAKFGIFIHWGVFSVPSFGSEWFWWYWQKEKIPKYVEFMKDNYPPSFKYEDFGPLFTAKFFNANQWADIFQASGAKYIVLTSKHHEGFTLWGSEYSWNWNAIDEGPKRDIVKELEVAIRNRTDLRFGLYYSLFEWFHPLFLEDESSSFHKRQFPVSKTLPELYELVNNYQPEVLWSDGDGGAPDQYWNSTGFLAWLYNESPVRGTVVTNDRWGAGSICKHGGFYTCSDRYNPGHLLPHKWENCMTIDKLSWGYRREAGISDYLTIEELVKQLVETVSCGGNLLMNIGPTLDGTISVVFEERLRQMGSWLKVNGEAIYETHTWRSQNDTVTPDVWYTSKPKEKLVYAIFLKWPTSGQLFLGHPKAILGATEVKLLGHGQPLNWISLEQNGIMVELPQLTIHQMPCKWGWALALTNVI
UniProt Q9H0R8, whole entry, looked up: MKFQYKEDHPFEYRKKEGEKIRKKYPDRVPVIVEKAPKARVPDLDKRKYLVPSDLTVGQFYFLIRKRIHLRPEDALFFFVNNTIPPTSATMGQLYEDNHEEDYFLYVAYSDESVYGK

Tests used:
Assay in all cases: log2 fold change, soluble protein after heating vs DMSO (PISA); higher = thermal stabilisation; K562 cells, 10 uM, 30 min; active = over 0.2 and 3.5 SD of the protein, either way, in both replicates (recomputed)
erlotinib = compound: C#Cc1cccc(Nc2ncnc3cc(OCCOC)c(OCCOC)cc23)c1 [erlotinib]
How it was run: (§1)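 Thermal stability values are relative to control samples and come from duplicates. They are expressed as log2 fold changes. For measurement, K562 cells (2×10^6 cells/mL) received 10 μM compound for 30 min, and aliquots were heated for 3 min over 48°C-58°C, pooled, and extracted at 4°C in PBS with 0.5% NP-40. Soluble protein, the supernatant after 21,000xg for 90 min, was quantified by TMTpro 16plex LC-MS/MS with equalised channel sums.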

[1] = compound: C/C(=N\NC(=O)C1=CC(=CC=C1)S(=O)(=O)N2CCOCC2)/C3=C(C=CC(=C3)Cl)O
How it was run: as §1

[2] = compound: C1=CC(=C(C=C1Cl)C2=NC3=NC=CN=C3C(=N2)NC4=CC=NC=C4)F
How it was run: as §1

[3] = compound: C1=CC(=CC=C1C2=NC3=C(N2)C=C(C=C3)C(=O)N)OC4=CC=C(C=C4)Cl
How it was run: as §1

[4] = compound: C1=CC2=C(C=CC(=C2)/C=C\3/C(=O)NC(=NCC4=CC=CS4)S3)N=C1
How it was run: as §1

[5] = compound: C1=CC2=NC=CN=C2C=C1/C=C/3\C(=O)NC(=O)S3
How it was run: as §1

[6] = compound: C1=CC=C(C=C1)C2=NC(=C(N2)C3=CC=NC=C3)C4=CC(=C(C=C4)Cl)O
How it was run: as §1

[7] = compound: C1=CC=C2C(=C1)C3=NNC4=CC=CC(=C43)C2=O
How it was run: as §1

[8] = compound: C1CCN(C1)C(=O)NC2=CC=CC(=C2)NC3=NC=C(C(=N3)NCCC4=CN=CN4)Br
How it was run: as §1

[9] = compound: C1CN(CCC1(CC2=CC=C(C=C2)Cl)N)C3=NC=NC4=C3C=CN4
How it was run: as §1

IRAK-1-4 Inhibitor I = compound: C1COCCN1CCN2C3=CC=CC=C3N=C2NC(=O)C4=CC(=CC=C4)[N+](=O)[O-] [IRAK-1-4 Inhibitor I]
How it was run: as §1

ibrutinib = compound: C=CC(=O)N1CCC[C@@H](n2nc(-c3ccc(Oc4ccccc4)cc3)c3c(N)ncnc32)C1 [ibrutinib]
How it was run: as §1

[10] = compound: CC(=O)c1cnc2ccc(-c3cc(Cl)c(O)c(Cl)c3)nc2c1N[C@H]1CC[C@H](CN(C)C)CC1
How it was run: as §1

ralimetinib = compound: CC(C)(C)Cn1c(N)nc2ccc(-c3[nH]c(C(C)(C)C)nc3-c3ccc(F)cc3)nc21 [ralimetinib]
How it was run: as §1

[11] = compound: CC(C)(O)CC(=O)NCCn1ccc2ncnc(Nc3ccc(Oc4cccc(C(F)(F)F)c4)c(Cl)c3)c21
How it was run: as §1

[12] = compound: CC(C)C1=C2N=C(C=C(N2N=C1)NCC3=CC=CC=C3)NCCCCCCN
How it was run: as §1

[13] = compound: CC(C)C[C@@H](C=O)NC(=O)[C@H](CC(C)C)NC(=O)[C@H](CC(C)C)NC(=O)OCc1ccccc1
How it was run: as §1

pinometostat = compound: CC(C)N(C[C@H]1O[C@@H](n2cnc3c(N)ncnc32)[C@H](O)[C@@H]1O)[C@H]1C[C@@H](CCc2nc3cc(C(C)(C)C)ccc3[nH]2)C1 [pinometostat]
How it was run: as §1

[14] = compound: CC1=C(C2=C(C=C1)C(=O)C3=CC=CC=C3N2CCCN)C
How it was run: as §1

[15] = compound: CC1=C(C(CC(=O)N1)C2=CC=C(C=C2)C(F)(F)F)C(=O)NC3=C(C=C4C(=C3)C=NN4)F
How it was run: as §1

| Target | log2 fold change (erlotinib) | log2 fold change [1] | log2 fold change [2] | log2 fold change [3] | log2 fold change [4] | log2 fold change [5] | log2 fold change [6] | log2 fold change [7] | log2 fold change [8] | log2 fold change [9] | log2 fold change (IRAK-1-4 Inhibitor I) | log2 fold change (ibrutinib) | log2 fold change [10] | log2 fold change (ralimetinib) | log2 fold change [11] | log2 fold change [12] | log2 fold change [13] | log2 fold change (pinometostat) | log2 fold change [14] | log2 fold change [15] |
| --- | --- | --- | --- | --- | --- | --- | --- | --- | --- | --- | --- | --- | --- | --- | --- | --- | --- | --- | --- | --- |
| FUBP3 (UniProt Q96I24) | inactive: -0.059 | inactive: 0.007 | inactive: 0.084 | inactive: 0.019 | inactive: -0.014 | inactive: 0.069 | inactive: -0.017 | inactive: 0.002 | inactive: 0.009 | inactive: 0.036 | inactive: -0.002 | inactive: -0.002 | inactive: -0.054 | inactive: 0.023 | inactive: -0.083 | inactive: 0.15 | inactive: 0.036 | inactive: -0.017 | active: 0.387 | – |
| GCC2 (UniProt Q8IWJ2) | inactive: -0.062 | inactive: 0 | inactive: -0.155 | inactive: -0.017 | inactive: -0.076 | inactive: 0.034 | inactive: -0.032 | inactive: -0.021 | inactive: -0.054 | inactive: -0.154 | inactive: -0.046 | inactive: -0.023 | inactive: 0.105 | inactive: 0.131 | inactive: 0 | inactive: -0.075 | inactive: 0.111 | inactive: 0.198 | inactive: -0.091 | – |
| GCDH (UniProt Q92947) | inactive: 0.016 | inactive: -0.078 | inactive: 0.045 | active: -0.273 | inactive: 0.081 | inactive: -0.011 | inactive: 0.082 | inactive: 0.048 | inactive: -0.011 | inactive: 0.039 | inactive: 0.018 | inactive: 0.025 | inactive: -0.092 | inactive: 0.007 | inactive: -0.09 | inactive: 0.05 | inactive: 0.003 | inactive: -0.053 | inactive: 0.055 | – |
| GGA2 (UniProt Q9UJY4) | inactive: 0.036 | inactive: -0.041 | inactive: -0.151 | inactive: 0.003 | inactive: 0.063 | inactive: 0.033 | inactive: -0.053 | inactive: -0.013 | inactive: 0.025 | inactive: -0.016 | inactive: 0.007 | inactive: -0.05 | inactive: -0.006 | inactive: -0.153 | inactive: -0.048 | inactive: -0.169 | inactive: 0.068 | inactive: -0.038 | inactive: 0.032 | – |
| GALNT2 (UniProt Q10471) | inactive: -0.052 | inactive: 0.043 | inactive: 0.021 | inactive: 0 | inactive: 0.009 | inactive: 0.022 | inactive: 0.028 | inactive: 0.046 | inactive: 0.009 | inactive: 0.042 | inactive: 0.009 | inactive: -0.019 | inactive: -0.006 | inactive: 0.014 | inactive: 0.027 | inactive: -0.021 | inactive: -0.02 | inactive: -0.02 | inactive: 0.007 | – |
| GATD1 (UniProt Q8NB37) | inactive: 0.028 | inactive: -0.006 | inactive: 0.111 | inactive: -0.012 | inactive: 0.057 | inactive: 0.007 | inactive: -0.01 | inactive: 0.047 | inactive: -0.006 | inactive: 0.098 | inactive: -0.069 | inactive: 0.106 | inactive: -0.099 | inactive: -0.026 | inactive: 0.01 | inactive: 0.026 | inactive: 0.104 | inactive: 0.141 | inactive: 0 | – |
| FOXK1 (UniProt P85037) | inactive: 0.113 | inactive: 0 | inactive: 0.054 | inactive: -0.307 | inactive: 0.425 | inactive: 0.355 | inactive: -0.075 | inactive: 0.61 | inactive: 0.394 | inactive: 0.352 | inactive: 0.046 | inactive: 0.121 | active: -1.03 | inactive: -0.027 | inactive: 0.015 | inactive: 0.111 | inactive: 0.052 | inactive: -0.002 | inactive: 0.154 | – |
| GDI1 (UniProt P31150) | inactive: -0.009 | inactive: 0.025 | inactive: 0.03 | inactive: 0.014 | inactive: 0.007 | inactive: 0.007 | inactive: -0.021 | inactive: -0.001 | inactive: 0.015 | inactive: 0.008 | inactive: 0.034 | inactive: 0.018 | inactive: -0.027 | inactive: -0.057 | inactive: 0.009 | inactive: 0.04 | inactive: -0.012 | inactive: -0.008 | inactive: 0.011 | – |
| GATAD2A isoform 3 (UniProt Q86YP4) | inactive: 0.02 | inactive: 0.03 | inactive: 0.033 | inactive: -0.013 | inactive: 0.034 | inactive: -0.021 | inactive: 0.095 | inactive: -0.032 | inactive: -0.068 | inactive: -0.041 | inactive: -0.048 | inactive: -0.044 | inactive: -0.072 | inactive: 0.036 | inactive: -0.115 | inactive: -0.204 | inactive: -0.001 | inactive: -0.032 | inactive: 0.043 | inactive: 0.015 |
| GAPVD1 isoform 6 (UniProt Q14C86) | inactive: 0.008 | inactive: 0.133 | inactive: -0.036 | inactive: -0.043 | inactive: 0.033 | inactive: 0.007 | inactive: 0.002 | inactive: 0.037 | inactive: -0.012 | inactive: -0.041 | inactive: -0.044 | inactive: -0.087 | inactive: 0.005 | inactive: 0.056 | inactive: -0.111 | active: -0.278 | inactive: 0.037 | inactive: 0.094 | inactive: -0.003 | – |
| GALNT1 (UniProt Q10472) | inactive: -0.001 | inactive: -0.014 | inactive: -0.069 | inactive: 0.022 | inactive: 0.031 | inactive: 0.006 | inactive: 0.06 | inactive: -0.003 | inactive: 0.004 | inactive: 0.06 | inactive: -0.106 | inactive: 0.023 | inactive: -0.002 | inactive: 0.101 | inactive: 0.018 | inactive: 0.048 | inactive: -0.141 | inactive: -0.025 | inactive: 0.021 | – |
| FUCA1 (UniProt P04066) | inactive: 0.01 | inactive: 0.024 | inactive: 0.049 | inactive: -0.007 | inactive: 0.031 | inactive: -0.004 | inactive: -0.004 | inactive: 0.044 | inactive: 0.012 | inactive: 0.018 | inactive: -0.003 | inactive: 0.018 | inactive: -0.049 | inactive: -0.067 | inactive: 0.056 | inactive: -0.054 | inactive: 0.003 | inactive: -0.03 | inactive: -0.199 | – |
| GGT7 (UniProt Q9UJ14) | inactive: 0.012 | inactive: -0.006 | inactive: 0.084 | inactive: -0.027 | inactive: -0.001 | inactive: -0.004 | inactive: -0.018 | inactive: -0.01 | inactive: -0.035 | inactive: 0.062 | inactive: 0.04 | inactive: 0.038 | inactive: 0.02 | inactive: -0.046 | inactive: 0.015 | inactive: 0.095 | inactive: 0.001 | inactive: -0.005 | inactive: -0.031 | – |
| GEMIN5 (UniProt Q8TEQ6) | inactive: -0.007 | inactive: 0.066 | inactive: -0.049 | inactive: 0.023 | inactive: 0.037 | inactive: 0.045 | inactive: 0.01 | inactive: 0.01 | inactive: 0.015 | inactive: 0.017 | inactive: -0.037 | inactive: -0.014 | inactive: -0.155 | inactive: 0.034 | inactive: -0.049 | active: -0.422 | inactive: 0.033 | inactive: 0.043 | active: -0.28 | – |
| GALNT11 (UniProt Q8NCW6) | inactive: 0.088 | inactive: -0.019 | inactive: 0.033 | inactive: -0.009 | inactive: 0.122 | inactive: 0.118 | inactive: -0.034 | inactive: 0.043 | inactive: -0.025 | inactive: 0.014 | inactive: -0.008 | inactive: -0.088 | inactive: -0.022 | inactive: 0.065 | inactive: 0.018 | inactive: 0.015 | inactive: 0.038 | inactive: 0.045 | inactive: 0.039 | – |
| FUCA2 (UniProt Q9BTY2) | inactive: -0.001 | inactive: -0.03 | inactive: -0.026 | inactive: 0.013 | inactive: 0.015 | inactive: 0.038 | inactive: 0.033 | inactive: 0.029 | inactive: 0.056 | inactive: 0.017 | inactive: -0.078 | inactive: 0.043 | inactive: -0.056 | inactive: 0.019 | inactive: 0.026 | inactive: -0.09 | inactive: -0.004 | inactive: 0.036 | inactive: -0.12 | – |
| GABARAPL1 isoform 2 (UniProt Q9H0R8) | inactive: 0.071 | inactive: -0.012 | inactive: -0.023 | inactive: -0.029 | inactive: 0.074 | inactive: -0.033 | inactive: -0.001 | inactive: 0.02 | inactive: -0.02 | inactive: 0.016 | inactive: 0.031 | inactive: -0.057 | inactive: -0.065 | inactive: -0.003 | inactive: -0.024 | active: -0.369 | inactive: 0.092 | inactive: -0.044 | inactive: 0.023 | – |

As a working copy, part of the list above.

| Target | log2 fold change (erlotinib) | log2 fold change [1] | log2 fold change [2] | log2 fold change [3] | log2 fold change [4] | log2 fold change [5] | log2 fold change [6] | log2 fold change [7] | log2 fold change [8] | log2 fold change [9] | log2 fold change (IRAK-1-4 Inhibitor I) | log2 fold change (ibrutinib) | log2 fold change [10] | log2 fold change (ralimetinib) | log2 fold change [11] | log2 fold change [12] | log2 fold change [13] | log2 fold change (pinometostat) | log2 fold change [14] | log2 fold change [15] |
| --- | --- | --- | --- | --- | --- | --- | --- | --- | --- | --- | --- | --- | --- | --- | --- | --- | --- | --- | --- | --- |
| GATD1 (UniProt Q8NB37) | inactive: 0.028 | inactive: -0.006 | inactive: 0.111 | inactive: -0.012 | inactive: 0.057 | inactive: 0.007 | inactive: -0.01 | inactive: 0.047 | inactive: -0.006 | inactive: 0.098 | inactive: -0.069 | inactive: 0.106 | inactive: -0.099 | inactive: -0.026 | inactive: 0.01 | inactive: 0.026 | inactive: 0.104 | inactive: 0.141 | inactive: 0 | – |
| FOXK1 (UniProt P85037) | inactive: 0.113 | inactive: 0 | inactive: 0.054 | inactive: -0.307 | inactive: 0.425 | inactive: 0.355 | inactive: -0.075 | inactive: 0.61 | inactive: 0.394 | inactive: 0.352 | inactive: 0.046 | inactive: 0.121 | active: -1.03 | inactive: -0.027 | inactive: 0.015 | inactive: 0.111 | inactive: 0.052 | inactive: -0.002 | inactive: 0.154 | – |
